# From the supplement of paper PMC8728848
# The list shows a part of the results.
# B1: Awp1 (Candida glabrata) (protein)
# chain: MSLITIFAFLIKATLVLSLDILTPTTLTGDQTFNEDVSVVSSLTLNDGSQYLFNNLLQIAPSSASVTANALAAVSVFTFSLPPSSSLSNSGTLIISNSNTGPSTEQHIVITPNVMANTGTITLSLAHTNTDSSSTLIIDPVTFYNTGTINYESIGSETNDPSLTGNILSIGSSGRTLQNLGTINLNAANSYYLLGTITENSGSINVQKGFLYVNALDFIGNTINLSTTTALAFISPVSQVVRVRGVFFGNIIASVGSSGTFSYNTQTGILTVTTNGVYSYDIGCGYNPALMSGQQETLSFQGNPYDTFLVLVNQPIPSDLTCAAVSSSITPSSSVEPSSSVVPSSSVEPSSSVEPSSSVEPSSSVEPSSSVEPSSSVEPSSSVEPSSSVEPSSSVEPSSSVEPSSSVEPSSSVEPSSSVEPSSSVEPSSSVEPSSSVEPSSSVEPSSSVEPSSSVEPSSLIVPSSSVEPSSSVLPSSSVVPSSSVEPSTPPIPSSSVEPSSSVVPSSPAVPSSSVEPSTPPIPSSSVVSASVFDTSSTLPSSPSVPPSSVSPSTISTPSSSAAPSSFCPTCVSSGTPPAPSSSAIVPTSSAGGGNGGDNREPGAAGQPGAAGQPGAAGQPGAAGQPGAAGQPGAAGQPGAAGQPGAAGQPGAAGQPGAAGQPGAGFGVGSEQPTPGAGAGSGSADGNQSGTGSGTGNGQQGSGQAGSGQAGSGQEGSGQAGSGQAGSGQAGSGQAGSGQAGLDNTASGQSEGGQASAMDGDQSGRDGQSNSGSLLQPNAQQGTGSGTGSDIGADQASGESPGQIGDAQPGSGTDQSSGRHSLAAEARTSQSHSLAADARTRSTTRQTSVIAPDTAPGTASGTAPGTAPGTAVVTTFHGCGTVNHKGMINILLALALLVLL
# Tests used:
# Assay in all cases: glycan array binding signal (z-score within array); higher = stronger binding
# Settings in all cases: glycan notation: IUPAC condensed, linker removed
# [1] = target: Fuc(a1-2)[Gal(a1-3)]Gal(b1-4)GlcNAc(b1-2)Man(a1-3)[Fuc(a1-2)[Gal(a1-3)]Gal(b1-4)GlcNAc(b1-2)Man(a1-6)]Man(b1-4)GlcNAc(b1-4)[Fuc(a1-6)]GlcNAc
# How it was run: (§1)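 The binding signal is a Z-score computed within each array. Data were drawn from 3228 arrays in the Consortium for Functional Glycomics database, restricted to those with a known protein sequence. Scores were averaged over arrays of the same protein sequence at different concentrations or buffers, and over linkers, and negative values can be taken as non-binding.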
# [2] = target: Fuc(a1-2)[Gal(a1-3)]Gal(b1-4)GlcNAc(b1-3)GalNAc
# How it was run: as §1
# [3] = target: Fuc(a1-2)[Gal(a1-3)]Gal(b1-4)GlcNAc(b1-3)[Fuc(a1-2)[Gal(a1-3)]Gal(b1-4)GlcNAc(b1-6)]GalNAc
# How it was run: as §1
# [4] = target: Fuc(a1-2)[Gal(a1-3)]Gal(b1-4)GlcNAc(b1-6)GalNAc
# How it was run: as §1
# [5] = target: Fuc(a1-2)[Gal(a1-3)]Gal(b1-4)[Fuc(a1-3)]Glc
# How it was run: as §1
# [6] = target: Fuc(a1-2)[Gal(a1-3)]Gal(b1-4)[Fuc(a1-3)]GlcNAc
# How it was run: as §1
# [7] = target: Fuc(a1-2)[Gal(a1-3)]Gal(b1-4)[Fuc(a1-3)]GlcNAc(b1-3)GalNAc
# How it was run: as §1
# [8] = target: Fuc(a1-2)[Gal(a1-4)]Gal(b1-4)GlcNAc
# How it was run: as §1
# [9] = target: Fuc(a1-2)[GalNAc(a1-3)]Gal
# How it was run: as §1
# [10] = target: Fuc(a1-2)[GalNAc(a1-3)]Gal(b1-3)GalNAc(a1-3)[Fuc(a1-2)]Gal(b1-4)GlcNAc
# How it was run: as §1
# [11] = target: Fuc(a1-2)[GalNAc(a1-3)]Gal(b1-3)GalNAc(b1-3)Gal(a1-4)Gal(b1-4)Glc
# How it was run: as §1
# [12] = target: Fuc(a1-2)[GalNAc(a1-3)]Gal(b1-3)GlcNAc
# How it was run: as §1
# [13] = target: Fuc(a1-2)[GalNAc(a1-3)]Gal(b1-3)GlcNAc(b1-2)Man(a1-3)[Fuc(a1-2)[GalNAc(a1-3)]Gal(b1-3)GlcNAc(b1-2)Man(a1-6)]Man(b1-4)GlcNAc(b1-4)GlcNAc
# How it was run: as §1
# [14] = target: Fuc(a1-2)[GalNAc(a1-3)]Gal(b1-3)GlcNAc(b1-2)Man(a1-3)[Fuc(a1-2)[GalNAc(a1-3)]Gal(b1-3)GlcNAc(b1-2)Man(a1-6)]Man(b1-4)GlcNAc(b1-4)[Fuc(a1-6)]GlcNAc
# How it was run: as §1
# [15] = target: Fuc(a1-2)[GalNAc(a1-3)]Gal(b1-3)GlcNAc(b1-3)GalNAc
# How it was run: as §1
# [16] = target: Fuc(a1-2)[GalNAc(a1-3)]Gal(b1-3)GlcNAc(b1-6)GalNAc
# How it was run: as §1
# [17] = target: Fuc(a1-2)[GalNAc(a1-3)]Gal(b1-4)Glc
# How it was run: as §1
# [18] = target: Fuc(a1-2)[GalNAc(a1-3)]Gal(b1-4)GlcNAc
# How it was run: as §1
# [19] = target: Fuc(a1-2)[GalNAc(a1-3)]Gal(b1-4)GlcNAc(b1-2)Man
# How it was run: as §1
# [20] = target: Fuc(a1-2)[GalNAc(a1-3)]Gal(b1-4)GlcNAc(b1-2)Man(a1-3)[Fuc(a1-2)[GalNAc(a1-3)]Gal(b1-4)GlcNAc(b1-2)Man(a1-6)]Man(b1-4)GlcNAc(b1-4)GlcNAc
# How it was run: as §1
# [21] = target: Fuc(a1-2)[GalNAc(a1-3)]Gal(b1-4)GlcNAc(b1-2)Man(a1-3)[Fuc(a1-2)[GalNAc(a1-3)]Gal(b1-4)GlcNAc(b1-2)Man(a1-6)]Man(b1-4)GlcNAc(b1-4)[Fuc(a1-6)]GlcNAc
# How it was run: as §1
# [22] = target: Fuc(a1-2)[GalNAc(a1-3)]Gal(b1-4)GlcNAc(b1-3)Gal(b1-4)GlcNAc
# How it was run: as §1
# [23] = target: Fuc(a1-2)[GalNAc(a1-3)]Gal(b1-4)GlcNAc(b1-3)Gal(b1-4)GlcNAc(b1-3)Gal(b1-4)GlcNAc
# How it was run: as §1
# [24] = target: Fuc(a1-2)[GalNAc(a1-3)]Gal(b1-4)GlcNAc(b1-3)GalNAc
# How it was run: as §1
# [25] = target: Fuc(a1-2)[GalNAc(a1-3)]Gal(b1-4)GlcNAc(b1-3)[Fuc(a1-2)[GalNAc(a1-3)]Gal(b1-4)GlcNAc(b1-6)]GalNAc
# How it was run: as §1
# [26] = target: Fuc(a1-2)[GalNAc(a1-3)]Gal(b1-4)GlcNAc(b1-6)GalNAc
# How it was run: as §1
# [27] = target: Fuc(a1-2)[GalNAc(a1-3)]Gal(b1-4)[Fuc(a1-3)]GlcNAc
# How it was run: as §1
# [28] = target: Fuc(a1-2)[GalNAc(a1-3)]Gal(b1-4)[Fuc(a1-3)]GlcNAc(b1-3)GalNAc
# How it was run: as §1
# [29] = target: Fuc(a1-2)[GalNAc(a1-4)]Gal(b1-4)GlcNAc
# How it was run: as §1
# [30] = target: Fuc(a1-2)[GalNAc(b1-3)]Gal
# How it was run: as §1
binder,measurement,setting,value
B1,glycan array binding signal (z-score),[1],-0.003
same,glycan array binding signal (z-score),[2],-1.3
same,glycan array binding signal (z-score),[3],0.108
same,glycan array binding signal (z-score),[4],-1.41
same,glycan array binding signal (z-score),[5],-0.915
same,glycan array binding signal (z-score),[6],1.42
same,glycan array binding signal (z-score),[7],0.158
same,glycan array binding signal (z-score),[8],-0.177
same,glycan array binding signal (z-score),[9],-0.243
same,glycan array binding signal (z-score),[10],-0.976
same,glycan array binding signal (z-score),[11],0.017
same,glycan array binding signal (z-score),[12],-0.908
same,glycan array binding signal (z-score),[13],0.268
same,glycan array binding signal (z-score),[14],0.472
same,glycan array binding signal (z-score),[15],1.47
same,glycan array binding signal (z-score),[16],1.04
same,glycan array binding signal (z-score),[17],-0.359
same,glycan array binding signal (z-score),[18],0.044
same,glycan array binding signal (z-score),[19],-0.359
same,glycan array binding signal (z-score),[20],-1.25
same,glycan array binding signal (z-score),[21],-0.09
same,glycan array binding signal (z-score),[22],-1.35
same,glycan array binding signal (z-score),[23],0.691
same,glycan array binding signal (z-score),[24],-0.601
same,glycan array binding signal (z-score),[25],-1.25
same,glycan array binding signal (z-score),[26],-0.35
same,glycan array binding signal (z-score),[27],-1.15
same,glycan array binding signal (z-score),[28],-0.176
same,glycan array binding signal (z-score),[29],-0.738
same,glycan array binding signal (z-score),[30],0.041

# Part of the list above, with tabs:
binder	measurement	setting	value
B1	glycan array binding signal (z-score)	[16]	1.04
same	glycan array binding signal (z-score)	[17]	-0.359
